According to PMC7526537:
Results are given in words; binding and its absence hold for the method and conditions named. Binding seen in cells or lysates may run through a third protein. Some binding calls cover weakened binding; strength is not graded here.

The chains behind the UniProt entries cited, without tags or fusion partners. Where a name states a change or a piece, a line headed by the entry shows the natural chain unless it says otherwise.
UniProt P41212: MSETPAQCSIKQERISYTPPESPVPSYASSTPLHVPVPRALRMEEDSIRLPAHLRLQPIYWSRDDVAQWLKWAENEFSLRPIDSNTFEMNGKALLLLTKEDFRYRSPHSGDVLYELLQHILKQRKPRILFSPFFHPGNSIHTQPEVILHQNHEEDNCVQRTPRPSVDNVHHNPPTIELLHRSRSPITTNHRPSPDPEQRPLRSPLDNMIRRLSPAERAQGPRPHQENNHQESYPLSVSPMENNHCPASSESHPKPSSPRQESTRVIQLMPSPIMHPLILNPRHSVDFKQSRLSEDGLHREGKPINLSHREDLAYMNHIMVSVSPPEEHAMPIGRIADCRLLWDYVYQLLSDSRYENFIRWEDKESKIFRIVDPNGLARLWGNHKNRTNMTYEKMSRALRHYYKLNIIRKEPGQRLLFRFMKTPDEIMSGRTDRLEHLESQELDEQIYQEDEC
UniProt O15379: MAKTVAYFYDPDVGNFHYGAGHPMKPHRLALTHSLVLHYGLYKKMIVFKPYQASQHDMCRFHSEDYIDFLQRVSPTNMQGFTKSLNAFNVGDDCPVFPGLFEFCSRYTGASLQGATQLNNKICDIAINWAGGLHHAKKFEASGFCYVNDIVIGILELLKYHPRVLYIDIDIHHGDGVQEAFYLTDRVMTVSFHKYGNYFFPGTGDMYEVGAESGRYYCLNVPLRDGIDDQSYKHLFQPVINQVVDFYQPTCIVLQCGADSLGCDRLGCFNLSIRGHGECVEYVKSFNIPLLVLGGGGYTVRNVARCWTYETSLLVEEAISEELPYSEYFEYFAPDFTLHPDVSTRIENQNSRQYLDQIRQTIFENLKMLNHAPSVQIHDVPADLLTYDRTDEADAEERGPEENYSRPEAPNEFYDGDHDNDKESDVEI

Target: ETV6 (ETS family transcription repressor and tumor suppressor variant 6), WT (human (endogenous in PBMCs)) (UniProt P41212)
Test: co-IP; lysate of healthy control PBMCs incubated with anti-ETV6 antibody and rec-Protein G-sepharose beads overnight at 4°C; beads washed 3 times with 1x PBS; eluate blotted for HDAC3, NCOR2 and α-tubulin

## HDAC3 (from UniProt O15379 1-428) (enzyme)
  binding: binds
